No constants are given. Whether binding was seen depends on the method and setting. Some results given as binding are weak or reduced against the parent protein; the word gives no strength. For some of these results: Sequences can lack the tags named with a protein.
T1: His-tagged RSV M2-1 protein (RSV (strain not stated)) (UniProt P04545)
T1 sequence: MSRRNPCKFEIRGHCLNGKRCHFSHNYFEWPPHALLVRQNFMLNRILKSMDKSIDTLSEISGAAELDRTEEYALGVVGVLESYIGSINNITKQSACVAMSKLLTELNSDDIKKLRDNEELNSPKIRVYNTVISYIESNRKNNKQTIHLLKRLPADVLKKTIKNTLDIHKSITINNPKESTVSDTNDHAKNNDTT

Amino acid sequences for entries named in this document (tags omitted).
UniProt P03418: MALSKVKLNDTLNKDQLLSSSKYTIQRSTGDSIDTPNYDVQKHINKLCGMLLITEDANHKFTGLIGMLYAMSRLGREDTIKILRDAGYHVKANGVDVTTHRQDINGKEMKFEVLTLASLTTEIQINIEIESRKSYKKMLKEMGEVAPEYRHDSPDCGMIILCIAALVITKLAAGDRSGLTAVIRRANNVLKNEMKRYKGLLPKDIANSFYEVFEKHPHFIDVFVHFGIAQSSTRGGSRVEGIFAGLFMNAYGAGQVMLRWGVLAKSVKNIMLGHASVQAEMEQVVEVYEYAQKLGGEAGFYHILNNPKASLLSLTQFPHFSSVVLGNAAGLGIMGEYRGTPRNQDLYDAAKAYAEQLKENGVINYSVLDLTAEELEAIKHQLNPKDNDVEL
UniProt O15527: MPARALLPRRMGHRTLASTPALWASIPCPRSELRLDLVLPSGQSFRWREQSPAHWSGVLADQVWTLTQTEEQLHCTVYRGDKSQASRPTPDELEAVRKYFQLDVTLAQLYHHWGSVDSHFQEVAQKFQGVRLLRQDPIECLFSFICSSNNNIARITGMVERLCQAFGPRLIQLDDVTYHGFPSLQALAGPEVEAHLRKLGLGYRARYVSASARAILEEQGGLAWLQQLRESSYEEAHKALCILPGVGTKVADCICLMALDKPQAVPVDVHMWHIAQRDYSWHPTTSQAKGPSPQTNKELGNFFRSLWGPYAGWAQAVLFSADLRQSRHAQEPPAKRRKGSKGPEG

B1: His-tagged RSV M2-1 protein (protein, UniProt P04545 1-194)
chain: T1 sequence

Assays:
[1] = target: His-tagged RSV nucleoprotein (Creative BioMart NP-424V) (RSV (strain not stated)) (UniProt P03418); test: pull-down; reciprocal setup: His-tagged protein held (N attached to Dynabeads, 100 nM; M2-1 50 nM), incubated with varying concentrations of GST-OGG1; room temperature, 10 min; immunoblot with anti-OGG1 antibody; both purified
[2] = target: T1, His-tagged RSV M2-1 protein (RSV (strain not stated)); test: as above
[3] = target: GST-tagged OGG1 (OriGene TP720109) (UniProt O15527); test: pull-down; GST-tagged OGG1 immobilised on glutathione agarose (100 nM with N, 50 nM with M2-1), incubated with increasing concentrations of the His-tagged protein; room temperature, 10 min; four washes; immunoblot; both purified

Molecule	binding [1]	binding [2]	binding [3]
GST-tagged OGG1 (OriGene TP720109) (from UniProt O15527 1-345) (enzyme)	binds	binds	–
His-tagged RSV nucleoprotein (Creative BioMart NP-424V) (from UniProt P03418 1-391)	–	–	binds
B1	–	–	binds
